The text below walks through data of US20220033816A1.

Amino acid sequences for entries named in this document (tags omitted). Residues count along the entry.
UniProt Q15078, residues 2-307: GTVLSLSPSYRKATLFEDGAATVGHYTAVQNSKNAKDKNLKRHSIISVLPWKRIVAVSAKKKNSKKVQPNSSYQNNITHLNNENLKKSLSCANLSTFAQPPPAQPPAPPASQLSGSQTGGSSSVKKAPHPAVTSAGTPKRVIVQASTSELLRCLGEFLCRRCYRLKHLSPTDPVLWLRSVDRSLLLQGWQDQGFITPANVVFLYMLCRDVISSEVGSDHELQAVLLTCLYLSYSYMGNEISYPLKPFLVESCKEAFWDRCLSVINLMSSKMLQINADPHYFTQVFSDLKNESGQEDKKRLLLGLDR

The target in the test is cyclin-dependent kinase 5 (CDK5) (UniProt Q00535). Put plainly: co-immunoprecipitation (CO-IP) and Western blot from SH-SY5Y cells overexpressing a p35 plasmid. (In western blotting, separated proteins are transferred to a membrane and probed.)

No constants are given. Whether binding was seen depends on the method and setting. In cells and extracts the contact can be indirect. Some binding calls cover weakened binding; strength is not graded here.

Regarding “p35 (CDK 5 regulatory subunit 1) (from UniProt Q15078 2-307)”, the binding entry was “binds”.
